The exact form of at least one protein or probe is not confirmed.
System: T1, L-AVP ((Arg8)-vasopressin) (Homo sapiens)
T1 sequence: CYFQNCPRG
Test: activity in cells
Conditions: L-RNA, hexaethylene glycol (PEG) spacer between Helix 2 and Helix 1, purified recombinant protein, protein details: L-peptide (cell assays: Calbiochem), synthetic backbone, mirror-image nucleic acid, variant of CHF-F-037 (D-RNA aptamer)

Which results are given for “GGGGUAGGGCUUGGAUGGGUAGUACACGUGUGCGUGGU [CHF-F-037 spiegelmer]”?
IC50 (V1 receptor Ca release, A7r5 cells, 5 nM AVP): 6 nM; IC50 (V2 receptor cAMP, LLC-PK1 cells, 1 nM AVP): 1 nM

For “GGGGUAGGGCUUGGAUGGGUAGUACACGUGUGCGUGGU [CHF-F-037-3'PEG spiegelmer]”, which IC50 (3'-C6-amino 40 kDa PEG, V1 receptor Ca release, A7r5 cells, 5 nM AVP) is on record?
Its IC50 is 7 nM.

And the IC50 (3'-C6-amino 40 kDa PEG, V2 receptor cAMP, LLC-PK1 cells, 1 nM AVP)?
Its IC50 is 1 nM.

Source: patent publication US20090181909
